Experimental data from the supplement of paper PMC3334620.
The full ranking holds about 33,000 sequences; the median of “E-score (-0.5 to 0.5)” is about -0.015, and the highest 2% start at about 0.3. The list shows a part of the results.

Target: T1, Abf1 (UniProt P14164)
T1 sequence: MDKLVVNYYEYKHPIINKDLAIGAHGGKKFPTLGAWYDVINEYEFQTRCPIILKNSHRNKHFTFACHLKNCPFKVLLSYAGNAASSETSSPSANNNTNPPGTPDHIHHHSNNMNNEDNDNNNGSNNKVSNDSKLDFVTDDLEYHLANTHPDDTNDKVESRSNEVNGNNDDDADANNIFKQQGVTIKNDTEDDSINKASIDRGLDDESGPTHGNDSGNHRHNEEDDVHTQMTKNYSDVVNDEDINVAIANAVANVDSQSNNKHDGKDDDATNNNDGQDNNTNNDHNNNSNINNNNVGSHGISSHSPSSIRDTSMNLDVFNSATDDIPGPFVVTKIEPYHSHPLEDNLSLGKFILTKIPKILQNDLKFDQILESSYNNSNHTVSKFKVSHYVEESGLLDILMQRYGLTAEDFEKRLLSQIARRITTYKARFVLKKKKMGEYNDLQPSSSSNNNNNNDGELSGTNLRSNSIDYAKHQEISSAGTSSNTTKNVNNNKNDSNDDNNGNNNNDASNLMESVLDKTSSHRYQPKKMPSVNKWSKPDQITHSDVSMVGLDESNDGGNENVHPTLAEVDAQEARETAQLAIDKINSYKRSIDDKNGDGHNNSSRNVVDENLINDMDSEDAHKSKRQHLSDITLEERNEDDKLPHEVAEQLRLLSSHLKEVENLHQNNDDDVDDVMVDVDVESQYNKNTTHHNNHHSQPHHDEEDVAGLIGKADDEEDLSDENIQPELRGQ
Assay: PBM E-score (8-mer binding enrichment) (E-score (-0.5 to 0.5)); higher = stronger / more preferred TF binding
Conditions: protein concentration: 200 nM; construct: GST-full length
In short: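 Masliner-normalised scans of fluorescent anti-GST signal were the basis for scoring. That signal came from GST-tagged yeast transcription factors applied at about 100-200 nM to double-stranded universal all-10-mer Agilent arrays on fresh or once-stripped slides. Each ungapped eight-base word, pooled with its reverse complement, received an E-score from the Universal PBM Analysis Suite.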

Sequence	PBM E-score
ACCCGCGG	0.118
GCTTACAA	-0.0814
AGCCTCGA	-0.0972
AAAGGGAT	0.107
CTTAGTGA	0.305
AGACCATA	0.0105
CGAGCCGA	-0.063
ATGACTCC	-0.0488
CTCGGGCA	0.0935
GGTACCCA	-0.0501
AAGGGCCG	-0.144
ATTACCAA	0.0612
CCGCTACA	-0.124
AACATGCC	-0.132
GCAAGTCC	-0.418
AAGGCTAT	-0.0422
AGGCAGAA	-0.154
CATGTGGC	0.0326
CCCGAAAG	-0.148
AGATCACA	0.138
ATTGCAAG	-0.0324
GGCGCGCC	-0.0677

Sequence	PBM E-score
ACTACAAT	0.112
CTAGCCGC	0.00077
CCACTTAC	-0.0948
AGAGATCC	-0.0902
AATCAAAC	0.174
CCCCCCGG	-0.483
GGTTCATA	-0.0971
ATAACACG	0.0352
ATTTCCCA	0.119
AGGCATCC	-0.104
GGAAGTTA	0.136
CTGTGAAG	-0.0974
CCTGTTAC	-0.0292
CGAACAGC	-0.165
CCCTGTGA	-0.0363
CGATCTAC	0.108
GTTGCTAA	0.106
AAAGGGGG	-0.335
TTGACAAA	0.182
CCAACAGG	-0.363
CTATATAC	0.364
ACCTGATA	0.0282

Reprinted from the results shown (4 entries):
Sequence	PBM E-score
ACTACAAT	0.112
CTAGCCGC	0.00077
CCACTTAC	-0.0948
AGAGATCC	-0.0902

Next part

Sequence	PBM E-score
CCCGTTCA	-0.0185
ACGATCCC	0.101
CCAAGCGG	-0.254
GGTACTAA	0.0193
ACAATCGT	0.107
GTGGCTAA	0.0853
ACACGAGT	0.228
AGAGCAAG	-0.0779
CGGAATTA	0.00678
GCGGTATA	-0.0336
CGTCCATA	0.164
GGCCACCA	0.0495
TCTAAAGA	0.0916
CCTTAGCC	-0.0679
AATAGATC	0.164
CGCGAGGC	-0.0829
ACGGGCAC	0.0739
AACCTTAT	-0.184
ACTCCGGA	0.113
AACGGATA	0.178
CCAGTCAA	-0.175
ATGCGAAT	-0.0624

Sequence	PBM E-score
AATAATGA	0.188
GAAAATGA	0.179
ACCGGTAC	-0.164
GAATGCAA	-0.0204
AGACCAAG	-0.212
AGATAGGG	-0.144
CGATAAGC	0.141
TGGAGGAA	-0.22
CTACCGCC	-0.183
AAAAGTCC	0.0886
AAGAAGGT	0.0307
AGTCCACT	-0.079
CGATTCTA	-0.0979
CTGCCAAA	0.0867
AGAAGGCC	-0.0673
AAGAACGG	-0.00472
AAGTCATC	0.255
AGGGACTG	-0.197
ATACGCGG	-0.114
ATAGCCCG	-0.169

Part of the list above, as comma-separated lines:
Sequence,PBM E-score
GAATGCAA,-0.0204
AGACCAAG,-0.212
